Results: PubChem BioAssay AID504444 (National Center for Advancing Translational Sciences (NCATS), 2011)
Hit rate of the full screen: of about 360,000 compounds, about 7,500 (2.1%) were called active. This list was built around the results that the source calls inconclusive (neither active nor inactive); the mix of calls is not that of the screen. The call rests on the fitted dose curve; in most records, active means well fitted inhibition curve with a large enough effect; inconclusive means small, poorly fitted or top-dose-only effect, or effect the other way; inactive means flat fitted curve, though single readings scatter. A potency beside an inconclusive call is a rough fit, not a confirmed value.

Test: Nrf2 qHTS screen for inhibitors; further: nearly all actives have a fitted effect of over 60% in size
Settings: A549 ARE-Fluc reporter, luciferase luminescence, 18-24 h; activity change, negative = inhibition: at 46 µM (top of the series)
Summary of the method: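 Nrf2 function is reported as luminescence of an ARE-controlled luciferase in A549 cells. Compounds were tested at several concentrations, and a CellTiter-Fluor read on the same wells flagged cytotoxicity.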
On the % scale 0 is the no-effect control and ±100 the full control effect; potency means the concentration at half of the fitted maximal effect.

Structure (SMILES) | Potency | activity change, negative = inhibition
O=C(Nc1ccncc1)c1ccc(Br)cc1 | inconclusive: 14.6 µM [falling, partial curve, poor fit] | 
c1ccc(NC2=Nc3cccc4cccc2c34)cc1 |  | inactive: 21.7%
N#CC(c1ccncc1)(c1ncc(C(F)(F)F)cc1Cl)N1CCOCC1 (stereo not given) |  | inactive: -13.4%
CC1CCN(c2ccccc2NC(=O)c2ccc([N+](=O)[O-])o2)CC1 |  | inactive: -34.4%
CCOC(=O)N1CCN(C(=O)c2nc3ccccc3s2)CC1 | inconclusive: 14.6 µM [activator, partial curve, poor fit] | 
COc1cc2c(cc1OC)CN(CCOc1ccc(Br)cc1)CC2 |  | inactive: -18.6%
CCCCN1C(=O)c2[nH]nc(-c3ccccc3O)c2C1c1ccc(C(C)(C)C)cc1 (stereo not given) | inconclusive: 29.1 µM [falling, single point] | 
COc1ccc(C)cc1S(=O)(=O)N1CCc2ccccc2C1 | inconclusive: 25.9 µM [falling, single point] | 
CC(=O)Nc1ccc2ccccc2c1 |  | inactive: 29.5%
O=C(NCc1ccc(Cl)cc1)c1ccc(COCC(F)(F)F)o1 | inconclusive: 32.6 µM [falling, single point] | 
CCN(CC)C(=O)CSc1nc2c(sc(=S)n2-c2ccccc2)c(=O)n1Cc1ccco1 | inconclusive: 23.1 µM [falling, single point] | 
C=CCn1c(C)cc(-c2csc(NC(=O)C3=COCCO3)n2)c1C | inconclusive: 1.64 µM [activator, partial curve, poor fit] | 
CCN(CC)CCCNC(=O)Cc1ccc(NC(=O)N2CCCCc3ccccc32)cc1 | inconclusive: 18.4 µM [activator, partial curve, poor fit] | 
CCOCC(=O)Nc1c(C(=O)Nc2ccc(OC)cc2OC)oc2ccccc12 | inconclusive: 20.6 µM [falling, single point] | 
COc1ccccc1NC(=S)N1CC(C)(C)C1=O |  | inactive: 9.32%
CC(=O)c1ccc(NC(=O)CSc2ccc(-c3cccs3)nn2)cc1 | inconclusive: 29.1 µM [activator, single point] | 
O=C(Nc1ccc(C(F)(F)F)cc1Cl)c1ccc(Cn2cc(Br)cn2)o1 | inconclusive: 32.6 µM [falling, partial curve, poor fit] | 
Cc1ccc(S(=O)(=O)Cc2ccc(C(=O)NCCc3ccc(Cl)cc3)o2)cc1 | inconclusive: 20.6 µM [falling, single point] | 
COc1ccccc1N(CC(=O)N1CCC(C(N)=O)CC1)S(=O)(=O)c1ccccc1 |  | inactive: 7.88%
OCCCn1c(-c2ccccc2)csc1=Nc1ccccc1 |  | inactive: -16.9%
O=c1c2ccccc2oc2cc(NCCCN3CCOCC3)ccc12 | inconclusive: 9.2 µM [activator, partial curve] | 
COCCCNC(=O)c1cnc2c(-c3ccc(F)cc3)c(C)nn2c1C | inconclusive: 29.1 µM [activator, single point] | 
Cc1cccc(C(=O)Nc2scc(CC(C)C)c2C(=O)O)c1 | inconclusive: 25.9 µM [falling, partial curve, poor fit] | 

Structure (SMILES) | Potency | activity change, negative = inhibition
CC(=O)CCc1ccc(Oc2nc(-c3cccnc3)nc3ccccc23)cc1 | inconclusive: 23.1 µM [falling, partial curve, poor fit] | 
COc1ccc(C2CC(c3cccs3)=NN2S(C)(=O)=O)cc1OC (stereo not given) | inconclusive: 20.6 µM [activator, partial curve, poor fit] | 
CCCNc1cc(C)c(C#N)c2nc3ccccc3n12 |  | inactive: 3.89%
CC(=O)/C(=C/c1ccccc1)C(=O)Nc1ccccc1C |  | inactive: -9.91%
Cn1nc(-c2ccccc2F)c2cc(C(=O)NCCc3ccc(Cl)cc3)sc21 | inconclusive: 14.6 µM [falling, single point] | 
CCCc1ccc(S(=O)(=O)NCCc2ccncc2)cc1 | inconclusive: 29.1 µM [falling, partial curve, poor fit] | 
Cc1nc(SCC(=O)NC(=O)NCCC(C)C)c2c(-c3cccs3)csc2n1 | inconclusive: 16.4 µM [falling, single point] | 
CCOc1cccc(C(=O)N2CCC(c3nc4ccccc4s3)CC2)c1 | inconclusive: 23.1 µM [falling, single point] | 
O=C(c1ccc(Br)cc1)N1CCN(CCc2ccncc2)CC1 |  | inactive: 11.8%
N#CC(=C=[N-])c1nc2ccccc2nc1-[n+]1cccc(NC(=O)c2cccs2)c1 | inconclusive: 18.4 µM [activator, single point] | 
CCC(=O)Nc1cccc(C(=O)/C=C/c2ccccc2)c1 | inconclusive: 16.4 µM [falling, partial curve, poor fit] | 
O=C1CC(c2nnc(Cc3ccc(F)cc3Cl)o2)CN1c1ccccc1 (stereo not given) |  | inactive: -5.55%
COC(=O)c1ccc(NC(=O)CSCc2ccccc2C)cc1 | inconclusive: 20.6 µM [falling, partial curve, poor fit] | 
O=C(CSc1ccc(-c2ccco2)nn1)N1CCCCCC1 | inconclusive: 2.31 µM [activator, partial curve] | 
Cc1nc(NC(=O)c2cc3ccccc3o2)ccc1Br | inconclusive: 23.1 µM [activator, partial curve] | 
CC(C)(C)c1ccc(OCC(O)CN2CCN(c3ccccn3)CC2)cc1 (stereo not given) | inconclusive: 23.1 µM [falling, single point] | 
Cc1cc(C)cc(NC(=S)N(Cc2ccc(Cl)cc2)Cc2ccc(C(=O)O)cc2)c1 | inconclusive: 0.0058 µM [falling, full curve, poor fit] | 
Cc1cccc(-n2c(Cc3ccccc3)nnc2SCc2nc(-c3cccs3)no2)c1 | inconclusive: 29.1 µM [falling, single point] | 
O=C1c2[nH]nc(-c3ccccc3O)c2C(c2ccccc2F)N1Cc1cccnc1 (stereo not given) |  | inactive: 4.39%
C=CCn1c(C)cc(C(=O)COc2ccc(C)nc2[N+](=O)[O-])c1C | inconclusive: 7.31 µM [falling, single point] | 
O=S(=O)(NCc1csc(-c2cccs2)n1)c1ccc(Cl)cc1 | inconclusive: 2.06 µM [falling, partial curve] | 
Oc1ccc(N=Nc2ccc3c(c2)OCCO3)c2cccnc12 | inconclusive: 29.1 µM [falling, single point] | 

Already shown: an excerpt of the list.
Structure (SMILES) | Potency | activity change, negative = inhibition
Cc1nc(SCC(=O)NC(=O)NCCC(C)C)c2c(-c3cccs3)csc2n1 | inconclusive: 16.4 µM [falling, single point] | 
CCOc1cccc(C(=O)N2CCC(c3nc4ccccc4s3)CC2)c1 | inconclusive: 23.1 µM [falling, single point] | 
O=C(c1ccc(Br)cc1)N1CCN(CCc2ccncc2)CC1 |  | inactive: 11.8%
N#CC(=C=[N-])c1nc2ccccc2nc1-[n+]1cccc(NC(=O)c2cccs2)c1 | inconclusive: 18.4 µM [activator, single point] | 
